Data as given in article doi:10.1101/2025.06.30.651016.
No constants are given. Whether binding was seen depends on the method and setting. In cells and extracts the contact can be indirect. Some binding calls cover weakened binding; strength is not graded here. Where a sequence is shown, tags or fusion partners need not be part of it. Values belong to the binder of their own block, whether it stands above or below them.

Sequences of proteins named here, by UniProt entry; tags and fusion partners are left off.
UniProt Q16515: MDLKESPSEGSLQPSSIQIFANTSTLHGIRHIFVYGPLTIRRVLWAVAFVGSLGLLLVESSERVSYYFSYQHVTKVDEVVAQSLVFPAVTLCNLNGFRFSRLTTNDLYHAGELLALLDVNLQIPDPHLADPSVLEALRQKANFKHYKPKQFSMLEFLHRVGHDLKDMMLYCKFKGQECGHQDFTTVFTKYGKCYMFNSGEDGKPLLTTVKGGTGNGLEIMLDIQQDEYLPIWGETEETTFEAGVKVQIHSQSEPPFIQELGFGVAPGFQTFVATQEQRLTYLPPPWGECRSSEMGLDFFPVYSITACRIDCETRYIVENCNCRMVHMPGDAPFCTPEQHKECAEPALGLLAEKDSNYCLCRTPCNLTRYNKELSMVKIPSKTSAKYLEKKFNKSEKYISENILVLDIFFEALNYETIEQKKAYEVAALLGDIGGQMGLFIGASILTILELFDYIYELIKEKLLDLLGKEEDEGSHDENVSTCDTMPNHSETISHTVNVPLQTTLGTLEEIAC

Columns and labels:
Assay in all cases: co-IP
[1] = molecular target: T1, ASIC3 (UniProt Q9UHC3)
T1 sequence: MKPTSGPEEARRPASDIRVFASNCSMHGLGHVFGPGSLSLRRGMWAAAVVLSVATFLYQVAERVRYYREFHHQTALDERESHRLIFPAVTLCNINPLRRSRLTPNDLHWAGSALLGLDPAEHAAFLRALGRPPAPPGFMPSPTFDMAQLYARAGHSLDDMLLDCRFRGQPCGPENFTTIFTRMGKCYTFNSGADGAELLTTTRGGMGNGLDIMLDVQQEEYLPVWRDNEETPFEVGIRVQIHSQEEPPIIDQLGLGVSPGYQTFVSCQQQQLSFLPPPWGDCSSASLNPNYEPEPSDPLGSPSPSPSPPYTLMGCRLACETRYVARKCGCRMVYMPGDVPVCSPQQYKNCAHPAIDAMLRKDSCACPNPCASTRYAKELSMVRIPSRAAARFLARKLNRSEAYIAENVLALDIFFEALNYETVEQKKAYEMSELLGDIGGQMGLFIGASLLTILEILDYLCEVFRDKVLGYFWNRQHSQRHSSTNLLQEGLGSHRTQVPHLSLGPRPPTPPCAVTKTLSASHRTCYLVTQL

[2] = molecular target: T2, ASIC1a C-terminally tagged with GFP followed by 1D4 tag (human) (UniProt P78348)
T2 sequence: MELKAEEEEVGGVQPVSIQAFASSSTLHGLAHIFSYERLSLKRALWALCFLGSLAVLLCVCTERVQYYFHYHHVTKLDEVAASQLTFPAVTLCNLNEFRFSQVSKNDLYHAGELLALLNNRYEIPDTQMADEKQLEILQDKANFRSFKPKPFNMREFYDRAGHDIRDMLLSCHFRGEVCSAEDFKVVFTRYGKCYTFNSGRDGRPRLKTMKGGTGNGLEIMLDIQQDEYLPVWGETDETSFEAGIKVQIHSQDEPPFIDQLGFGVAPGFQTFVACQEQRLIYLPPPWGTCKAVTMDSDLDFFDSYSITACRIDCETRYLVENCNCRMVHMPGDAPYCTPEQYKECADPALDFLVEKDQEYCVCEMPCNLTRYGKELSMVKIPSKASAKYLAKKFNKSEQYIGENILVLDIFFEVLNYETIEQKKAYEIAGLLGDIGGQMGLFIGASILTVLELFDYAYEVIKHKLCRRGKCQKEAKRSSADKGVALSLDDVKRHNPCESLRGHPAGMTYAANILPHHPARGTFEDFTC

[3] = molecular target: ASIC2a (UniProt Q16515)

- binding [1]: binds
- binding [2]: binds
- binding [3]: binds
B1: human MCT1 with N-terminal mCherry and Flag tag (protein, UniProt P53985 1-500)
chain: MPPAVGGPVGYTPPDGGWGWAVVIGAFISIGFSYAFPKSITVFFKEIEGIFHATTSEVSWISSIMLAVMYGGGPISSILVNKYGSRIVMIVGGCLSGCGLIAASFCNTVQQLYVCIGVIGGLGLAFNLNPALTMIGKYFYKRRPLANGLAMAGSPVFLCTLAPLNQVFFGIFGWRGSFLILGGLLLNCCVAGALMRPIGPKPTKAGKDKSKASLEKAGKSGVKKDLHDANTDLIGRHPKQEKRSVFQTINQFLDLTLFTHRGFLLYLSGNVIMFFGLFAPLVFLSSYGKSQHYSSEKSAFLLSILAFVDMVARPSMGLVANTKPIRPRIQYFFAASVVANGVCHMLAPLSTTYVGFCVYAGFFGFAFGWLSSVLFETLMDLVGPQRFSSAVGLVTIVECCPVLLGPPLLGRLNDMYGDYKYTYWACGVVLIISGIYLFIGMGINYRLLAKEQKANEQKKESKEEETSIDVAGKPNEVTKAAESPDQKDTDGGPKEEESPV

- binding [2]: binds
B2: human MCT4 with N-terminal mCherry and Flag tag (protein, UniProt O15427 1-465)
chain: MGGAVVDEGPTGVKAPDGGWGWAVLFGCFVITGFSYAFPKAVSVFFKELIQEFGIGYSDTAWISSILLAMLYGTGPLCSVCVNRFGCRPVMLVGGLFASLGMVAASFCRSIIQVYLTTGVITGLGLALNFQPSLIMLNRYFSKRRPMANGLAAAGSPVFLCALSPLGQLLQDRYGWRGGFLILGGLLLNCCVCAALMRPLVVTAQPGSGPPRPSRRLLDLSVFRDRGFVLYAVAASVMVLGLFVPPVFVVSYAKDLGVPDTKAAFLLTILGFIDIFARPAAGFVAGLGKVRPYSVYLFSFSMFFNGLADLAGSTAGDYGGLVVFCIFFGISYGMVGALQFEVLMAIVGTHKFSSAIGLVLLMEAVAVLVGPPSGGKLLDATHVYMYVFILAGAEVLTSSLILLLGNFFCIRKKPKEPQPEVAAAEEEKLHKPPADSGVDLREVEHFLKAEPEKNGEVVHTPETSV
